Changes are numbered by the printed parent chain. No constants are given. Whether binding was seen depends on the method and setting. A result given as binding can be weak or reduced; the word gives no strength. Each block holds one binder with its values, some of them ahead of it.
Legend:
[1] = molecular target: human CD47 on the cell surface (human) (UniProt Q08722); assay: flow cytometry on Raji and 293T cells, full length IgG1 (FIG. 5 legend)
[2] = molecular target: human CD47 on the cell surface (human) (UniProt Q08722); assay: flow cytometry on Raji and HEK-293 cells (FIG. 5)
[3] = molecular target: human CD47 on the cell surface (human) (UniProt Q08722); assay: flow cytometry on a 1:1 mix of labelled Raji and Raji-GPC3^H cells (FIG. 12C)
[4] = molecular target: human CD47 on the cell surface (human) (UniProt Q08722); assay: FACS on Raji-WT and Raji-GPC3H cells, FITC anti-human IgG
[5] = molecular target: human CD47 on the cell surface (human) (UniProt Q08722); assay: flow cytometry (short legend of FIG. 5)
[6] = molecular target: human CD47 on the cell surface (human) (UniProt Q08722); assay: SIRPα competition FACS, cells carrying hCD47, competitor biotinylated SIRPα-d1-mFc (100 nM by the legend paragraph 154), streptavidin-FITC
[7] = molecular target: human CD47 on the cell surface (human) (UniProt Q08722); assay: blocking FACS, 10 µg/mL antibody, blocked ligand 50 nM biotinylated SIRPα-mFc, streptavidin-FITC
[8] = molecular target: human CD47 on the cell surface (human) (UniProt Q08722); assay: FACS, cells carrying hCD47, full-length IgG1, FITC anti-human Fc
[9] = molecular target: human CD47 on the cell surface (human) (UniProt Q08722); assay: FACS, 1:1 mix of Raji-WT (dye-labelled) and Raji-GPC3H cells, 0.2 µg/mL antibody
[10] = molecular target: human CD47 on the cell surface (human) (UniProt Q08722); assay: FACS on Raji cells, full-length IgG1, 5-fold series from 200 nM, FITC anti-hFc
[11] = molecular target: human CD47 on the cell surface (human) (UniProt Q08722); assay: FACS on 293T cells, full-length IgG1, FITC anti-hFc
[12] = molecular target: human CD47 on the cell surface (human) (UniProt Q08722); assay: flow cytometry on cells carrying hCD47 (FIG. 4A)
[13] = molecular target: human CD47 on the cell surface (human) (UniProt Q08722); assay: flow cytometry on Raji and HEK-293 cells, FITC anti-human Fc (FIG. 5)
[14] = molecular target: human CD47 on the cell surface (human) (UniProt Q08722); assay: FACS on Raji-WT and Raji-GPC3H cells, FITC secondary antibody

Protein sequences, listed by entry. Tags and fused reporters are not part of them. Lines headed by an entry give the natural chain unless they say otherwise; changes in a name come on top.
UniProt Q08722: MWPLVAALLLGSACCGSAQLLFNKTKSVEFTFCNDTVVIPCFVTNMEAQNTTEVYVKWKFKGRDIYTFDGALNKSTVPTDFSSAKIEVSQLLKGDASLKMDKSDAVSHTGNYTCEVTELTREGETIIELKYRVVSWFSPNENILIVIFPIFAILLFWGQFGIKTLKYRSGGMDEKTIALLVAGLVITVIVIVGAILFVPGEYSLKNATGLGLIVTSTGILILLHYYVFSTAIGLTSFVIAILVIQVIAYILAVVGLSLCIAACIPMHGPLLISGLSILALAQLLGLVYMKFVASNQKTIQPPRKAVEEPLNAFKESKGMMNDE

binding [1]: binds | binding [2]: binds | binding [3]: binds | binding [4]: binds | binding [5]: binds | binding [6]: binds | binding [7]: binds | binding [8]: binds | binding [9]: binds | binding [10]: binds | binding [11]: binds | binding [12]: binds | binding [13]: binds | binding [14]: binds
B1: BC18 full-length human IgG1 (antibody, V domains shown)
VH: QVQLQQSGPGLVKPSETLSLTCTVSGDSINYHYWSWIRQPPGKGLEWIGYIYYSGSTTYNPSLKSRVTMSVDPSKNHFSLKLTSVTAADTALYFCARQRGAYDYWGQGTQVTVSS
VL: DIQLTQSPSSVSASVGDRVTIACRASQDIGSRLVWYQQRPGKAPKLLIYAASSLQSGVPSRFSGSGSGTDFTLTISSLQPEDFATYYCQQSYSTPYSFGQGTKLEIK
notes: also called anti-CD47 mAb; parental anti-CD47 mAb

binding [1]: binds | binding [2]: binds | binding [5]: binds | binding [10]: binds | binding [11]: binds | binding [13]: binds
B2: BC7 full-length human IgG1 (antibody, V domains shown)
VH: B1 VH with Q110L
VL: DIVMTQSPSSVSASVGDRVTITCRASQGIGSRLAWYQQKPGKAPQLLIYAASSLQSGVPSRFSGSGSGTEFTLTISSLQPDDFATYYCQQYNSFSPITFGQGTRLEIK

Reference: patent US20240076412A1 (NATIONAL INSTITUTE OF BIOLOGICAL SCIENCES BEIJING, published 2024)
